The target of experiment [1] is T1, Tribbles homolog 2 (TRIB2), endogenous (human (endogenous in Bel-7402)) (UniProt Q92519).
T1 sequence: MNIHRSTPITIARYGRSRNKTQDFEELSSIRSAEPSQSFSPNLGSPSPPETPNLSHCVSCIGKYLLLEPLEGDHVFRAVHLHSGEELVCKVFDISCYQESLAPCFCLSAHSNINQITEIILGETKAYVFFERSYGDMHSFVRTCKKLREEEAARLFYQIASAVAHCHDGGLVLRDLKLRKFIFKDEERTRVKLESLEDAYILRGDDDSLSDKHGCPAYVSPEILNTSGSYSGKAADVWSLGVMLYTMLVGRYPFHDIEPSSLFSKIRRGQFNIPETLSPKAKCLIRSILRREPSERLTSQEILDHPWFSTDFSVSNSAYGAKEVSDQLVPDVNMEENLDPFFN
Description: proximity ligation; Duolink in situ PLA on cells fixed in 4% paraformaldehyde, primary antibodies to the two proteins; Bel-7402 and SMMC-7721 named for PCBP2 with PSMB5.

In experiment [2] the target is T2, purified TRIB2 protein (ab186094, Abcam) (UniProt Q92519).
T2 sequence: T1 sequence
Description: co-IP; in vitro co-IP: 1 µg purified protein held by 5 µg antibody on protein A/G magnetic beads, then 1 µg of the other purified protein at 4 °C overnight in 400 µl binding buffer (25 mM Tris-HCl pH 7.2, 150 mM NaCl, 5 mM MgCl2, 1% NP-40, 20 mM imidazole); immunoblot; reciprocal; both purified. (In general: In western blotting, separated proteins are transferred to a membrane and probed.)

The target of the next experiment is T3, TRIB2-FLAG (WT-TRIB2) (UniProt Q92519).
T3 sequence: T1 sequence
Description: co-IP; conventional co-IP of exogenous TRIB2 and PCBP2 constructs from HEK-293T cells, reciprocal, immunoblot.

Results are given in words; binding and its absence hold for the method and conditions named. Binding seen in cells or lysates may run through a third protein. For some assays here: Binding can be weak; no strength is given. For some assays here: Sequences can lack the tags named with a protein.

The values that follow come from publication PMC7791120.

With E3 βTrCP, endogenous, the binding result in experiment [1] was “binds”. As for purified GSK3 protein (ab60863, Abcam), in experiment [2], the binding entry is “no binding (tested: 1 µg of each protein in 400 µl)”.

Turning to “truncated PCBP2 PΔ1 (domain or fragment)”, in the experiment with TRIB2-FLAG (WT-TRIB2), the binding result is on record as “binds”. Take “truncated PCBP2 PΔ2 (domain or fragment)”: the binding entry in the experiment with TRIB2-FLAG (WT-TRIB2) was “binds”. With “truncated PCBP2 PΔ3 (domain or fragment)”, the binding result in the experiment with TRIB2-FLAG (WT-TRIB2) was “binds”. Regarding “truncated PCBP2 PΔ4 (domain or fragment)”, the binding entry with TRIB2-FLAG (WT-TRIB2) was “binds”. As for “truncated PCBP2 PΔ5 (domain or fragment)”, the binding result with TRIB2-FLAG (WT-TRIB2) is recorded as “binds”. Take “truncated PCBP2 PΔ6 (domain or fragment)”: in the experiment with TRIB2-FLAG (WT-TRIB2), the binding entry is given as “no binding”.
